From US8030048B2, “Enantioselective epoxide hydlrolase and method for preparing and enantiopure epoxide using the same” (Korea Ocean Research and Development Institute, priority 2005, dated 2011)
The name of at least one read-out is uncertain.

Legend:
[1] = Kinetic parameters of purified EHases by GC analysis, (R)-styrene oxide; type: biochemical; conditions: (R)-enantiomer of styrene oxide, Table 7
Procedure: (§1) Kinetic parameters of the rEEH1, rEEH2, rEEH3, sEEH, nEEH, and rEEH were determined by a GC analysis using (R)- or (S)- styrene oxide substrate. 100 ul of purified EHases were mixed with various concentrations of (R)- or (S)- styrene oxide in a 10 ml tube containing 1 ml of potassium phosphate buffer (100 mM, pH 8.0), and shake-incubated at 200 rpm and a temperature of 30° C. The extraction mixtures were extracted with 2 ml of hexane, and enantiomeric excess [ee; ee=100×(S−R)/(S+R)] toward enantiopure styrene oxide was analyzed with a chiraldex gamma-cyclodextrin trifluoroacetyl(G-TA) capillary GC column. Wherein, the FIG. 8 was diagramed with GC analysis for the hydrolyzing activities of enantioselective EHases (rEEH1, rEEH2, and rEEH3) toward racemic styrene oxide.
(§2) Kinetic parameters were estimated by non-linear regression analysis using a Sigma Plot program, and various substrates as depicted in FIG. 1 were also tested for the enantioselective hydrolyzing activity by rEEH1, rEEH2, rEEH3, sEEH, nEEH, and rEEH.

[2] = Kinetic parameters of purified EHases by GC analysis, (S)-styrene oxide; type: biochemical; conditions: (S)-enantiomer of styrene oxide, Table 7
Procedure: as §1, §2

Row | Molecule | Kcat/Km [1] [S−1/mM] | Kcat/Km [2] [S−1/mM]
1 | Novosphingobium aromaticivorans epoxide hydrolase nEEH (Novo), SEQ ID NO: 30 (Novosphingobium aromaticivorans DSM 12444) (protein) MNVAPFVVDIPRGEIEDLHRRIDMTRWPEKETVDDWSQGTPLGALQDFVSYWRGGYDWYACQRMLNDWGMFETEIDGVAIRFLHVRSAQADARPLLLTHGWPGSILEFRRCIAPLTRPEEHGGTAADAFHLVIPCLPGYGFSGKPTRKGWSVQKIAQAWGELMKRLGYESWLAQGGDWGSAVTTAIGALKVEGCAGIHLNMPIARPLPEDLAAPTPEELRALTALQHYQDWDSGYSKEQATRPQTVGYGLVDSPVGLAGWIYEKMWAWTDNEGAPEDALSRDDMLDNIMLYWLTAAGASSARLYWESFASFGPSQIDIPAAASAFPKEIIPAPRKWFERNCSKLVYWGELEKGGHFAAWEQPEAFVKELRAAFSLMC | 4.63 | 3.24
2 | Rhodobacterium sp. HTCC2654 epoxide hydrolase rEEH (RH), SEQ ID NO: 32 (Maritimibacter alkaliphilus HTCC2654) (protein, soluble-EH-like alpha/beta hydrolase) MNDKTFIETNGIRLATRIEGDGPLVILVHGFPETAYSWRKQASPLVEAGYRVCIPDVRGYGNSDAPEAVSAYAMEVMTRDFLGLAQALSEVPAVIVGHDWGAPLAWNTARLFPEQFRAVAGLSVPYAPPGDVAPIDLYHKLFTDKGRFFYQVYFQDEGVAEAELEADVEDSLAKFYYAWSGDCPPNGWPNDKAHGDPVLKGLPRPDLPLPWLTQDDLDRYAADFRTSGFRGPLNRYRNQREDHAFLKAHPSNPIIQQPSLFLYGDRDPVLTMFRTPPEDLLPKTLADLRGVHRLPGVGHWTQQEAPEAVNKALIDWLATL | 6.16 | 1.63
3 | sEEH: 49 kDa epoxide hydrolase purified from Sphingopyxis alaskensis, SEQ ID NO: 28 (protein, listed as Erythrobacter litoralis) MSPAKSISLRRLLSTAISVAALGMTLQSSPSFASSAGPSTAITVSAAAAVAAPQDESIRPFHVSIPEEALTDLRRRLAETRWPDREKVSDASQGVQLDRLEPLVRYWGTDYDWRKGEARLNAVPQFITTIDGLDIQFIHIRSKHKGAMPLLMTHGWPGSPFELLKTVGPLTDPTAHGGKAEDAFDLIMPTYPGYGFSGKPNEAWDPARVARAWDVLMKRLGYKNYVSQGGDWGAIISQVLAVQAPEGLLGIHTNMPGTVPPGVLKLVRAKQPAPDSYSPEEKIAYAGLETFYGKGFGYAEMMNTRPQTLGYGLSDSPVGLAAFLYEKIATWTDSGGNPESVLTRDEILDNITLYWLTNTGTSSSRSYWDAAQGPGGPFNAIEISKVPVAVTVFPGEIYRAPRSWGEKSFKKLIYWNEVDKGGHFAAWEQPELFAAEIRAAFRPLREKK | 1.86 | 1.92
